Reference: patent US20130183706A1, “Method for Culturing Adipocytes” (ASSISTANCE PUBLIQUE-HOPITAUX DE PARIS, priority 2010, published 2013)
At least one compound was matched to its structure with a doubt left.

Experiments:
mature adipocytes [1] = experiment: Measurement of lipolytic activity (glycerol released) of mature adipocytes in hydrogel; assay type: cell-based, human; settings: mature adipocytes in 3D hydrogel, up to 7 days, 100 nM dexamethasone in culture medium
mature adipocytes [2] = experiment: Measurement of adipokine secretion (ELISA) by mature adipocytes in hydrogel; assay type: cell-based, human; settings: mature adipocytes in 3D hydrogel, up to 7 days of culture, 100 nM dexamethasone in medium, compared with absence

Compound: C[C@@H]1C[C@H]2[C@@H]3CCC4=CC(=O)C=C[C@]4(C)[C@@]3(F)[C@@H](O)C[C@]2(C)[C@@]1(O)C(=O)CO [dexamethasone]
- basal lipolytic activity (mature adipocytes [1]; basal conditions): does not modify
- forskolin-stimulated lipolytic activity (mature adipocytes [1]; stimulated with 10 μM forskolin): does not modify
- secretion of leptin (mature adipocytes [2]): increases
